At least one peptide structure holds a part that was inferred or is arguable (an end, a ring closure or a residue).
Experiments:
Ramos cells (CD10pos) = settings: ratio of IC50
Experimental: (§1) Suspension cells, BALL-1, Ramos and Namalwa cells were cultured in RPMI media containing 10% heat inactivated fetal calf serum (FCS). On the day of the study, the cells were collected, washed and resuspended at a concentration of 0.5×10^6 cells/ml in RPMI containing 10% FCS. 100 µl of cell suspension was added to 96 well plates. […] Finally 10 μl of a 100 μCi/ml ^3H-thymidine was added per well and the plates were incubated for 24 hours. The plates were harvested using a 96 well Harvester (Packard Instruments) and counted on a Packard Top Count counter. Four parameter logistic curves were fitted to the ^3H-thymidine incorporation as a function of drug molarity using Prism software to determine IC50 values.
(§2) The effect of two known inhibitors of CD10 on prodrug activity in Ramos, LNCaP and Ball-1 cells was evaluated. The IC50 of Suc-βAla-Ile-Ala-Leu-Dox was determined in the presence of increasing concentration of the CD10 inhibitors, phosphoramidon and thiorphan.

Namalwa cells (CD10pos) = type: cell-based; settings: ratio of IC50
Experimental: as §1

[1] = system: LNCaP (prostate carcinoma) cells; settings: ratio of IC50
Experimental: Adherent cells, LNCaP (prostate carcinoma), HT-29 (colon carcinoma) and PC-3 (prostate carcinoma), were cultured in DMEM media containing 10% heat inactivated fetal calf serum (FCS). On the day of the study the cells were detached from the plate with a trypsin solution. The collected cells were washed and resuspended at a concentration of 0.25×10^6 cells/ml in DMEM containing 10% FCS. 100 μl of cell suspension were added to 96 well plates and the plates were incubated for 3 hours to allow the cells to adhere. […] The plates were then incubated for 24 hours, pulsed with 10 μl of a 100 μCi/ml ^3H-thymidine and incubated for an additional 24 hours (total incubation time 48 hours). The plates were harvested using a 96 well Harvester (Packard Instruments) and counted on a Packard Top Count Counter. […]
Adherent cells, LNCaP (prostate carcinoma), PC-3 (prostate carcinoma) and 22 RV1 (prostate carcinoma), were cultured in DMEM media containing 10% heat inactivated fetal calf serum (FCS). […] The plates were harvested using a 96 well Harvester (Packard Instruments) and counted on a Packard Top Count Counter. […]
as §2

Porcine Kidney CD10 = assay: Hydrolysis by purified CD10; type: biochemical; settings: for % hydrolysis/10 hr: 12.5 μg/mL, 37° C., pH 7.4, product Leu-doxorubicin; for Fraction hydrolyzed relative to standard: standard Suc-βAla-Leu-Ala-Leu-Dox
Experimental: Reaction products were analyzed by HPLC with fluorescence detection. Rates were essentially linear over the incubation period. The observed product was Leu-doxorubicin.

| SMILES | Ratio Ball-1:Ramos (Ramos cells (CD10pos)) | Ratio Ball-1:Namalwa (Namalwa cells (CD10pos)) | Ratio PC-3:LNCaP [1] | % hydrolysis/10 hr (Porcine Kidney CD10) | Fraction hydrolyzed relative to standard (Porcine Kidney CD10) |
| --- | --- | --- | --- | --- | --- |
| COc1cccc2c1C(=O)c1c(O)c3c(c(O)c1C2=O)C[C@@](O)(C(=O)CO)C[C@@H]3O[C@H]1C[C@H](NC(=O)[C@H](CC(C)C)NC(=O)[C@H](Cc2ccc(O)cc2)NC(=O)[C@H](CC(C)C)NC(=O)CCC(=O)O)[C@H](O)[C@H](C)O1 [Suc-Leu-Tyr-Leu-Dox] | 1 | 1 | 5 | 0 % hydrolysis/10 hr | 0 |
| COc1cccc2c1C(=O)c1c(O)c3c(c(O)c1C2=O)C[C@@](O)(C(=O)CO)C[C@@H]3O[C@H]1C[C@H](NC(=O)[C@H](CC(C)C)NC(=O)[C@H](C)NC(=O)[C@H](CCSC)NC(=O)CCC(=O)O)[C@H](O)[C@H](C)O1 [Suc-Met-Ala-Leu-Dox] |  |  |  | 37.7 % hydrolysis/10 hr | 3.5 |

Source: patent US20050267016A1, “CD-10 activated prodrug compounds” (priority 2001, published 2005)
